Here are results for one molecule from US20220273713A1, “METHOD OF INHIBITING OR ACTIVATING GAMMA DELTA T CELLS” (The University of Melbourne, priority 2019, published 2022).

Sequences of proteins named here, by UniProt entry; tags and fusion partners are left off. Residues count along the entry.
UniProt O00481, residues 30-513: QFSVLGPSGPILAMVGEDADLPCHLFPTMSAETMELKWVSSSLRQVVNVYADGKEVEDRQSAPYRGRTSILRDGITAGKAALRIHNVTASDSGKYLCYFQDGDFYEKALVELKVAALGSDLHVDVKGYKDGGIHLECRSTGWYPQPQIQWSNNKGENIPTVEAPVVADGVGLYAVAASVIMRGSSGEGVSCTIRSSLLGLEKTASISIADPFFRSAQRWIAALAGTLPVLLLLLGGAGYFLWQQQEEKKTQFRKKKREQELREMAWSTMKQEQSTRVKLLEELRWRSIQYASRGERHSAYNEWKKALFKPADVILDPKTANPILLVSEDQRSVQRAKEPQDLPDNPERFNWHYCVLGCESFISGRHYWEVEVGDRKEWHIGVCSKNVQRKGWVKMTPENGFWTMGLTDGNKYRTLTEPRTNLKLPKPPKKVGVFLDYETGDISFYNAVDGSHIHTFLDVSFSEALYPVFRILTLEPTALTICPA
UniProt P78410, residues 30-334: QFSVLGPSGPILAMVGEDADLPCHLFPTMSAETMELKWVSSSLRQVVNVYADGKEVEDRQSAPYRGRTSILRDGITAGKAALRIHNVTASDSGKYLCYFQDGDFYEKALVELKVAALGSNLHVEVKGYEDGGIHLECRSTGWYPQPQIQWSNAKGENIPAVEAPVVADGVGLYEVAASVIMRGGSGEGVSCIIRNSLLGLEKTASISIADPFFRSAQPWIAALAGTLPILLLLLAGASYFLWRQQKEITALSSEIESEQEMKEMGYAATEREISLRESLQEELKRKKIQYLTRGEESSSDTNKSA

These are yes or no findings as the source states them, for the method shown.

Assay [1] deals with T1, human BTN3A1, isoform 1, on cells (human, UniProt O00481 30-513).
T1 construct: whole, on cells
As to the kind of experiment: flow cytometry, anti-BTN2A1 259 versus anti-BTN3A 103.2 on transfected NIH-3T3 cells. For orientation: In flow cytometry, cells or beads pass a laser one at a time.

For assay [2], the target named is human BTN3A2, isoform 1, on cells (human) (UniProt P78410). The assay is described as above.

B1: anti-BTN2A1 antibody 259 (antibody, V domains shown)
VH: EVQLLESGGGLVQPGGSLRLSCAASGFTFSSYAMQWVRQAPGKGLEWVSRIGPSGGGTMYADSVKGRFTISRDNSKNTLYLQMNSLRAEDMAVYYCARDLGGLSVLFDYWGQGTLVTVSS
VL: QSELTQPPSASETPGQRVTISCSGSSSNIGSNTVSWFQQLPGSAPRLLIYNDHRRPSGVPDRFSGSKSGTSASLVISGLQSQDEADYYCSAWDDSLNGVVFGGGTKLTVL
Regarding B1, the binding result in assay [1] and in assay [2] was “no binding” in each case.
